# Data taken from US12059478B2, “Gene therapy” (Ospedale San Raffaele S.r.l., priority 2016, dated 2024).
# System: human cord-blood (CB)-derived CD34+ cells
# Experiment: RNA-Seq time course of exposed CD34+ cells
# Type: cell-based
# Conditions: p-value ≤ 0.05
substance,measurement,value
Poly(I:C),Genes changing over time,9496
same,Number of differentially expressed genes over time vs Untreated,2691
